Results on 15 substances are retold here after paper PMC3527430 (PLoS ONE, 2012).

Square brackets hold non-standard residues; d marks the D form. * marks the point of attachment. Cbz = O=C(OCc1ccccc1)*; Aib = CC(C)(N)C(=O)O; OtBu = CC(C)(C)O*

The nature of the data set: general procedure: solution-phase peptide synthesis; EDC/HOAt with NMM; PyBOP for some segment condensations.

For the setting “late stage modification step”, “Ac-Aib1-Pro2-Aib3-Ala4-Aib5-Ala6-Glu(OMe)7-Aib8-Val9-Aib10-Gly11-Leu12-Aib13-Pro14-Val15-Aib16-Aib17-Glu(OMe)18-Glu(OMe)19-Alaol20-Boc (ABCD-Alaol-Boc)” registered a step yield of 11%.
For the setting “coupling step”, “Ac-Aib1-Pro2-Aib3-Ala4-Aib5-Ala6-Glu(OMe)7-Aib8-Val9-Aib10-Gly11-Leu12-Aib13-Pro14-Val15-Aib16-Aib17-Glu(OMe)18-Glu(OMe)19-Phaol20-N6-Boc (ABC^3D^2-N6-Boc)” displayed a step yield of 33%.
Ac-Aib1-Pro2-Aib3-Ala4-Aib5-OtBu had a step yield (coupling step) of 53%.
Regarding Cbz-A'B-OtBu, the step yield (coupling step, run 1) was 86% and the step yield (coupling step, run 2) is listed as 89%.
Consider “Cbz-Aib5-Ala6-Glu(OMe)7-Aib8-Val9-Aib10-Gly11-Leu12-Aib13-Pro14-Val15-Aib16-Aib17-Glu(OMe)18-Glu(OMe)19-Phaol20-N6-Boc (Cbz-BC^3D^2-Phaol-N6-Boc)”, for which the step yield (coupling step) was 27%.
As for Cbz-A’BC^3-OtBu, the step yield (coupling step) is recorded as 41%.
With Cbz-B-OtBu, the step yield (coupling step) came to 85%.
Substance Cbz-CD-Phe-ethanolamine-TBDMS registered a step yield (coupling step) of 55%.
The same measure, in the same setting: the same measure for Cbz-C^3-OtBu: 88%; for Cbz-E(OMe)[Aib]V[Aib]GL[Aib]-OtBu: 85%.
Cbz-P[Aib]A[Aib]-OtBu returned a step yield (coupling step) of 85%.
Still for that read-out and setting: the value for “Cbz-Pro14-Val15-Aib16-Aib17-Glu(OMe)18-Glu(OMe)19-Phaol20-N3-Boc (Cbz-C^3D^2-Phaol-N6-Boc)” was 79%; that for Cbz-V[Aib]GL[Aib]-OtBu was 86%; that for Cbz-[Aib]GL[Aib]-OtBu was 86%.
Under “coupling step”, Cbz-[Aib]V[Aib]GL[Aib]-OtBu registered a step yield of 77%.
